Results are given in words; binding and its absence hold for the method and conditions named. Binding seen in cells or lysates may run through a third protein. Some results given as binding are weak or reduced against the parent protein; the word gives no strength. For some assays here: Tags and fused reporters may be left off the sequences shown.

Sequences of proteins named here, by UniProt entry; tags and fusion partners are left off. A change or cut given only in a name is not applied to a line headed by its entry.
UniProt Q969H0: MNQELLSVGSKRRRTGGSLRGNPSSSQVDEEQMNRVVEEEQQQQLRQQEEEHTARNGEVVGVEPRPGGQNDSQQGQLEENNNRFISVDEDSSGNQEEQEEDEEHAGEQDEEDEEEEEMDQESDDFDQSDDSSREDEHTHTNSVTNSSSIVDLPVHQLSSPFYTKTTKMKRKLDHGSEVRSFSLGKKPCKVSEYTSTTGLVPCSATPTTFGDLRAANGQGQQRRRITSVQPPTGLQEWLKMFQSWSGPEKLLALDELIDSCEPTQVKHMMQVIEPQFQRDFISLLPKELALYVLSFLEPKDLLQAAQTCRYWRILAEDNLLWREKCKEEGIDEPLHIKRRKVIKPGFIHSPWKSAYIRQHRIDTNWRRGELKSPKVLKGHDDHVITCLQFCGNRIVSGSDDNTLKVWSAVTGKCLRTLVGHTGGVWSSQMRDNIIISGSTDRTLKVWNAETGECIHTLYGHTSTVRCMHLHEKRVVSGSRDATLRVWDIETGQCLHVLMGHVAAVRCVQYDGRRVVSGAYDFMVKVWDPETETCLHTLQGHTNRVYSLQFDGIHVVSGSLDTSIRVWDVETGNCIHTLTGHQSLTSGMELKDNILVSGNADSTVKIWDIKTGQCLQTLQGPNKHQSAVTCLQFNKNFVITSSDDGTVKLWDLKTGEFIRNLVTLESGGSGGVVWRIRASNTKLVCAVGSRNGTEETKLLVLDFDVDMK
UniProt P49841: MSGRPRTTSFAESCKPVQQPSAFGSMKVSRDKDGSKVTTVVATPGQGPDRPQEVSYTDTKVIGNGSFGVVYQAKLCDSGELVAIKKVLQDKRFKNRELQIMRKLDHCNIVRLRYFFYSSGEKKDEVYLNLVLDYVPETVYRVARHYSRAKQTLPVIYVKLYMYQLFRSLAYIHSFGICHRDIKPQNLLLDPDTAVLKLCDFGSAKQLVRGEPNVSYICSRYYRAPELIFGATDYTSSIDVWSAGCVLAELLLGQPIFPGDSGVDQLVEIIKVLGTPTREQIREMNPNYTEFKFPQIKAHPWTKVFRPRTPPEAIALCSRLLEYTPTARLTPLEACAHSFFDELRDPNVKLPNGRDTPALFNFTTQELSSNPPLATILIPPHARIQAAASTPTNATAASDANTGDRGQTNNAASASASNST

The record followed here is paper PMC6511875.

For assay [1], the target named is T1, FLAG-IRF1 (mouse), wild type (mouse) (UniProt P15314).
T1 sequence: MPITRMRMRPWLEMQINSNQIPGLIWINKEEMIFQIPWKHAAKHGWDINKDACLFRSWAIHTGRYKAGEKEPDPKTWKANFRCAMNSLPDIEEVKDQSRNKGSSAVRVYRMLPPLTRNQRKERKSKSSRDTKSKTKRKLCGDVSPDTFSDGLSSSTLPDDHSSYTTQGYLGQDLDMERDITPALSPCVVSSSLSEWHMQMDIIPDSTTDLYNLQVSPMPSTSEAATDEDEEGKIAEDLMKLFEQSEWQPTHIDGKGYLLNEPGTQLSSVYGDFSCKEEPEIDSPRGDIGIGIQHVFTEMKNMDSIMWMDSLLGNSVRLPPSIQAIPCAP
Put plainly: co-IP; HEK293 cells overexpressing FLAG-IRF1 and GSK3β-HA; 1 mg lysate; IP with anti-HA or anti-FLAG, overnight at 4°C; washes in TNE buffer (10 mM Tris pH 7.4, 1 mM EDTA, 200 mM NaCl); also after DRB (1 μM/1 h), which reduced the co-IP.

Assay [2] concerns the target T2, murine GST-IRF1 (mouse) (UniProt P15314).
T2 sequence: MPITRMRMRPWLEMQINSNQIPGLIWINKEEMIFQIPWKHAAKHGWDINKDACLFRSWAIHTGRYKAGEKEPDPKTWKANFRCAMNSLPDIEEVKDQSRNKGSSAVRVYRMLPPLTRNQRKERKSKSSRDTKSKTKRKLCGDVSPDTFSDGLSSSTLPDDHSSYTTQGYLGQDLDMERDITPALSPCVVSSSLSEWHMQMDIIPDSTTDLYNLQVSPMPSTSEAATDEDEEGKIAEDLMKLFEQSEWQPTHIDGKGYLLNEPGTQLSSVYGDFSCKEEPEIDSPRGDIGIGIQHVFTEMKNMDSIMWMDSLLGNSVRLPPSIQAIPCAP
Put plainly: pull-down; GST-IRF1 (1 μg) on GSH beads in NETN buffer (20 mM Tris-HCl pH 8, 100 mM NaCl, 1 mM EDTA, 0.5% NP40); in vitro translated 35S-labelled protein added, overnight at 4°C; 3 washes; autoradiography; only the target purified.

In assay [3] the target is T3, FLAG-IRF1 T181D (mouse) (UniProt P15314).
T3 sequence: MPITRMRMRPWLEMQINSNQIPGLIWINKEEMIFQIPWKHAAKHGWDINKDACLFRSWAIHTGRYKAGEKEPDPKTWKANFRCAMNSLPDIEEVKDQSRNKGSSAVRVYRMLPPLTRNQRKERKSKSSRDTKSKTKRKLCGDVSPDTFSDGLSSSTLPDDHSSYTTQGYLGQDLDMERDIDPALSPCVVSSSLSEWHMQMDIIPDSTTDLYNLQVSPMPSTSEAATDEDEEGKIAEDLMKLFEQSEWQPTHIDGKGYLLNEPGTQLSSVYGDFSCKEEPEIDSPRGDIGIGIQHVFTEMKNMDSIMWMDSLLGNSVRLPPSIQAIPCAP
The assay is described as follows: co-IP; HEK293 cells expressing HA-Fbxw7α (or ΔWD40) and FLAG-IRF1 (WT or mutants), with or without GSK3β-HA; MG132 (10 μM) for 6 h prior to lysis; IP with anti-HA or anti-FLAG, western blot. On the technique in general: Immunoblotting shows a protein as a band on a membrane.

Assay [4] addresses T1, FLAG-IRF1 (mouse), wild type (mouse). The assay is described as above.
In assay [5] the target is T4, FLAG-IRF1 T181A (mouse) (UniProt P15314).
T4 sequence: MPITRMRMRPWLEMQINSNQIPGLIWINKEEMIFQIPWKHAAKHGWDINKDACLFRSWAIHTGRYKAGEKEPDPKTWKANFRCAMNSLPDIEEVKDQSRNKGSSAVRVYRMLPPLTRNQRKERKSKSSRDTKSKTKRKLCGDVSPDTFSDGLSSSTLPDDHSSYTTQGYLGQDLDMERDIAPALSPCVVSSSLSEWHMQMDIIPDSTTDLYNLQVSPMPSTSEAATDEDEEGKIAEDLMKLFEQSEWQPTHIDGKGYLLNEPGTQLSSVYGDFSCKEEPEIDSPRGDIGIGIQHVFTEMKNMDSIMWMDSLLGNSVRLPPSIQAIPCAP
The description is as above.

Assay [6] has as its target T5, endogenous human IRF1 (human (endogenous in H3396)) (UniProt P10914).
T5 sequence: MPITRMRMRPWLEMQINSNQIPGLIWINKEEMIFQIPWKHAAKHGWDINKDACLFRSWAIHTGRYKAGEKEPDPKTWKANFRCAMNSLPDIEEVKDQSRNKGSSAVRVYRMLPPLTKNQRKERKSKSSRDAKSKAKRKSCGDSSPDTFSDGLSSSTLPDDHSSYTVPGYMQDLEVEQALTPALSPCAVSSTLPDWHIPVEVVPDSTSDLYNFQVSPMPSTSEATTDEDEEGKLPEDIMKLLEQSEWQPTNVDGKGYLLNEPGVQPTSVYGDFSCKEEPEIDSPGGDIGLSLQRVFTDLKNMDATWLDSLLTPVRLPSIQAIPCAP
Put plainly: co-IP; endogenous proteins in H3396 extracts; IP with IgG, anti-IRF1 or anti-GSK3β; cells pre-treated with MG132 (10 μM) or DMSO for 3 hr, basal or IFNγ-induced; more robustly detected after MG132.

Assay [7] addresses HA-Fbxw7α (UniProt Q969H0). Put plainly: co-IP; HEK293 cells expressing HA-Fbxw7α (or ΔWD40) and FLAG-IRF1 (WT or mutants), with or without GSK3β-HA; MG132 (10 μM) for 6 h prior to lysis; IP with anti-HA or anti-FLAG, western blot.
Assay [8] addresses GSK3β-HA, wild type (UniProt P49841). The assay is described as follows: co-IP; HEK293 cells overexpressing FLAG-IRF1 and GSK3β-HA; 1 mg lysate; IP with anti-HA or anti-FLAG, overnight at 4°C; washes in TNE buffer (10 mM Tris pH 7.4, 1 mM EDTA, 200 mM NaCl); also after DRB (1 μM/1 h), which reduced the co-IP.
For assay [9], the target named is GST-Fbxw7α (UniProt Q969H0). Put plainly: pull-down; HEK293 lysates expressing GST-Fbxw7 isoforms; NP40 lysis buffer (50 mM Tris pH 7.5, 150 mM NaCl, 0.5% NP40); 0.5 mg lysate with glutathione-sepharose beads, 3 h at 4°C; 3 washes.
The target of assay [10] is endogenous GSK3β (human (endogenous in H3396)) (UniProt P49841). The assay is described as follows: co-IP; endogenous proteins in H3396 extracts; IP with IgG, anti-IRF1 or anti-GSK3β; cells pre-treated with MG132 (10 μM) or DMSO for 3 hr, basal or IFNγ-induced; more robustly detected after MG132.

As to “GSK3β-HA, wild type (from UniProt P49841 1-420) (enzyme)”, the binding result in assay [1] is recorded as “binds”.
Turning to “in vitro transcribed/translated 35S-methionine-labelled GSK3β-HA (from UniProt P49841 1-420) (enzyme)”, the binding result in assay [2] is recorded as “binds”.
As to HA-Fbxw7α (from UniProt Q969H0 1-707), the binding result in [3], in assay [4] and in assay [5] was “binds” each time.
On to “GSK3β-HA K85A (kinase inactive) (from UniProt P49841 1-420) (enzyme)”, for which, in assay [1], the binding result is given as “binds”.
In the case of “endogenous GSK3β (from UniProt P49841 1-420) (enzyme)”, the binding result in assay [6] was “binds”.

B1: FLAG-IRF1 (mouse), wild type (protein, UniProt P15314 1-329)
chain: MPITRMRMRPWLEMQINSNQIPGLIWINKEEMIFQIPWKHAAKHGWDINKDACLFRSWAIHTGRYKAGEKEPDPKTWKANFRCAMNSLPDIEEVKDQSRNKGSSAVRVYRMLPPLTRNQRKERKSKSSRDTKSKTKRKLCGDVSPDTFSDGLSSSTLPDDHSSYTTQGYLGQDLDMERDITPALSPCVVSSSLSEWHMQMDIIPDSTTDLYNLQVSPMPSTSEAATDEDEEGKIAEDLMKLFEQSEWQPTHIDGKGYLLNEPGTQLSSVYGDFSCKEEPEIDSPRGDIGIGIQHVFTEMKNMDSIMWMDSLLGNSVRLPPSIQAIPCAP
As to B1, the binding entry in assay [7], in assay [8] and in assay [9] was “binds” throughout.

B2: endogenous human IRF1 (protein, UniProt P10914 1-325)
chain: MPITRMRMRPWLEMQINSNQIPGLIWINKEEMIFQIPWKHAAKHGWDINKDACLFRSWAIHTGRYKAGEKEPDPKTWKANFRCAMNSLPDIEEVKDQSRNKGSSAVRVYRMLPPLTKNQRKERKSKSSRDAKSKAKRKSCGDSSPDTFSDGLSSSTLPDDHSSYTVPGYMQDLEVEQALTPALSPCAVSSTLPDWHIPVEVVPDSTSDLYNFQVSPMPSTSEATTDEDEEGKLPEDIMKLLEQSEWQPTNVDGKGYLLNEPGVQPTSVYGDFSCKEEPEIDSPGGDIGLSLQRVFTDLKNMDATWLDSLLTPVRLPSIQAIPCAP
On to B2, for which the binding result in assay [10] is “binds”.
